Results reported in paper PMC7020397 (Toxins, 2020).
Results are given in words; binding and its absence hold for the method and conditions named. Some binding calls cover weakened binding; strength is not graded here.

Chains of the proteins cited; added tags and fusions are not shown. Residues count along the entry.
UniProt P36544, residues 23-502: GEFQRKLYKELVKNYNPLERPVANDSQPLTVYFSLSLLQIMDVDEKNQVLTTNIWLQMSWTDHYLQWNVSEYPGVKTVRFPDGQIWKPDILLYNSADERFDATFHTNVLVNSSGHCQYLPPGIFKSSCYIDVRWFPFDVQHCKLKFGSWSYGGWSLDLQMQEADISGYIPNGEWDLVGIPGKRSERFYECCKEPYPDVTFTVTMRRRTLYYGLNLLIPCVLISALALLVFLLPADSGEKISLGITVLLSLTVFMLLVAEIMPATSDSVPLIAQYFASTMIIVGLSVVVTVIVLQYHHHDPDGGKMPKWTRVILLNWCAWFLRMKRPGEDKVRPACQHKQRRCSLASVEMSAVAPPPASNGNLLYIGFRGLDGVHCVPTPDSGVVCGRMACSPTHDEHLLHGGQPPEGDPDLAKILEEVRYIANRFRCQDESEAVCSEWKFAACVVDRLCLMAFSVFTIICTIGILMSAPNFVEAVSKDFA
UniProt P60615, residues 22-95: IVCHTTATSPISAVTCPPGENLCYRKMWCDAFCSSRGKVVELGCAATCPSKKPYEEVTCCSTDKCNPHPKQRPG

Biological target: human neuronal α7 nAChR (human) (UniProt P36544)
Experiment: competition with α-bungarotoxin

With “α-bungarotoxin (from UniProt P60615 22-95) (ligand)” the binding was “binds”.
